Results on two compounds are retold here after patent US20090214439A1, “Fluorinated Carbohydrates and Their Use in Tumor Visualization, Tissue Engineering, and Cancer Chemotherapy” (Trustees of Tufts College, priority 2006, published 2009).

For this data set, the system named is Jurkat, HL-60 and HeLa cells. Put plainly: ESI-MS analysis of cytosolic fractions (conversion of N-acyl mannosamines to sialic acids). It is filed as cell-based. To be noted: cells treated with 200 μM of the corresponding N-acyl mannosamine 4 for 36-48 hrs. The method, then: ESI-MS Analysis of Cytosolic Fractions. The ability of fluorinated N-acyl mannosamines 4a, 4b, 4d, 4e, and 4g (see FIG. 2 for structures) to cross the plasma membrane and undergo subsequent conversion to the corresponding sialic acids was probed using electrospray ionization mass spectral (ESI-MS) analysis of cytosolic fractions. Three cell lines, Jurkat (ATTC TIB-152), HL-60 (ATCC CCL-240) and HeLa (ATCC CCL-2) were investigated. Briefly, cells (usually 5×10^5 cells/mL in 20 mL culture medium) were treated with 200 μM compound for 36-48 hrs, and then the cytosolic fraction was collected by pelleting the cells, washing, and subsequent lysing induced by freeze-thaw cycles. The isolate was then passed through a 3000 MW cutoff filter, concentrated, and analyzed by LC ESI-MS using a Vydac C4 (2.1 mm×150 mm, 5μ) column using a linear gradient of CH3CN/H2O.

For the compound `O=C(CC(F)(F)F)N[C@H]1[C@H]([C@H](O)[C@H](O)CO)OC(O)(C(=O)O)C[C@@H]1O` (some centres unmarked) [Compound 5e, 5-N-trifluoropropyl-Neu], the “detection of the sialic acid in the cytosolic fraction by LC ESI-MS” value was “not detected”. Under 5-N-trifluorobutyl-Neu [Compound 5g] stands “not detected”.
